Where a name gives a salt, the structure may show the parent alone. At least one structure is not confirmed: it was looked up by name or label, or the drawing left a doubt.
Test system: dopamine (DA) reuptake, rat brain synaptosomes (striatum)
Assay: dopamine (DA) reuptake inhibition in rat brain synaptosomes (striatum), method of Ferris RM et al
Assay type: biochemical

SMILES	IC50 [µM]
O=C(CN1CC[C@@H](c2ccc(F)cc2)[C@H](COc2ccc3c(c2)OCO3)C1)c1ccc(Cl)cc1 [Example 2, (-)-Trans-N-p-chlorobenzoylmethyl-4-(p-fluorophenyl)-3-[[3,4-(methylenedioxy)phenoxy]methyl]-piperidine hydrochloride]	22.2
O=C(CN1CC[C@@H](c2ccc(F)cc2)[C@H](COc2ccc3c(c2)OCO3)C1)c1ccc(F)cc1 [Example 1, (-)-Trans-N-p-fluorobenzoylmethyl-4-(p-fluorophenyl)-3-[[3,4-(methylenedioxy)phenoxy]methyl]-piperidine hydrochloride]	> 10

Reference: patent publication US5665736A, “N-benzoylmethyl-piperidines” (priority 1995, dated 1997)
